This is one part of the list. Further columns of the screen follow, without active or inactive calls. Compounds called inactive in the main read-out are mostly missing here. Potencies come from curve fits of mixed quality, noted in brackets.
Assay: qHTS Assay to Find Inhibitors of Chronic Active B-Cell Receptor Signaling
Settings: ABC-DLBCL IkBa-CBG/CBR reporter, luminescence ratio (green luciferase fused to IkBa over red control in TMD8 lymphoma cells), 4 h
How it was run: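 Cell line TMD8 (human ABC DLBCL), stably expressing tet-inducible CBG68-IkBa fusion and CBR; IMDM/0.5% FBS; cpd up to 46 uM; dox induction, 4 h, 37C/5% CO2; dual luminescence; green/red ratio; MG132 control.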

[1] = measured here: CBR red luminescence, cell number
[2] = measured here: IkBa-CBG green luminescence

Question: Which AC50 [1] does the source give for `Cc1cccc2sc(N(CCCN(C)C)C(=O)CCc3ccccc3)nc12` here?
Answer: 29.1 µM [falling, single point]

Question: With `CCOC(=O)CC(NC(=O)Cn1nnc(-c2ccccc2Cl)n1)c1ccc(OC)cc1` (stereo not given) as the molecule, how does the AC50 [1] read?
Answer: 35.5 µM [rising, single point]

Question: For `Cc1ccc2nc(SCCC(=O)O)cc(C)c2c1`, which AC50 [1] is on record?
Answer: 29.1 µM [falling, single point]

Question: For `CC1CCCCC1NC(=O)CN(C)S(=O)(=O)c1cccc2cccnc12` (stereo not given), which AC50 [1] is on record?
Answer: 1.58 µM [rising, partial curve, poor fit]

Question: With `O=C(NNC(=S)Nc1ccccc1Cl)c1ccncc1` as the molecule, how does the AC50 [1] read?
Answer: 35.5 µM [falling, single point]

Question: Which AC50 [1] does the source give for `COc1ccc(/C=N/NC(=O)c2cccnc2)cc1Cn1nc([N+](=O)[O-])c(Br)c1C` here?
Answer: 12.6 µM [falling, partial curve, poor fit]

Question: What about the AC50 [2] of the same molecule?
Answer: 20 µM [falling, partial curve, poor fit]

Question: With `Oc1ccc(/C=N/Nc2nc(-c3ccc(Cl)cc3)cc(C(F)(F)F)n2)cc1` as the molecule, how does the AC50 [1] read?
Answer: 10.3 µM [falling, partial curve]

Question: What about the AC50 [2] of the same molecule?
Answer: 18.4 µM [rising, single point]

Question: Which AC50 [1] does the source give for `Cc1ccc(-c2nc(S(=O)(=O)c3ccc(C)cc3)c(SCC(N)=O)o2)cc1` here?
Answer: 35.5 µM [falling, single point]

Question: For `COc1ccc(/C=N/NC(=S)Nc2cccc(C(=O)O)c2)cc1OC`, which AC50 [1] is on record?
Answer: 18.4 µM [falling, partial curve]

Question: Which AC50 [1] does the source give for `C=CCOc1ccc(CNc2nccs2)cc1` here?
Answer: 3.66 µM [rising, partial curve, poor fit]

Question: Which AC50 [1] does the source give for `Cc1c(N2C(=O)/C(=C\c3cccc4ccccc34)SC2=S)c(=O)n(-c2ccccc2)n1C` here?
Answer: 6.51 µM [falling, single point]

Question: For `COc1cccc(CN(C)Cc2cc(=O)oc3c(C)c(C)ccc23)c1`, which AC50 [1] is on record?
Answer: 10 µM [falling, single point]

Question: With `CCOc1cc(NC(=O)CCl)c(OCC)cc1NC(=O)CCl` as the molecule, how does the AC50 [2] read?
Answer: 11.2 µM [falling, partial curve]

Question: With `Cc1csc(C(C)NC(=O)c2ccc(OC3CCN(CCc4ccccc4)CC3)cc2)n1` (stereo not given) as the molecule, how does the AC50 [1] read?
Answer: 35.5 µM [falling, partial curve, poor fit]

Question: With `COCCCNc1nc2ccccc2nc1NS(=O)(=O)c1ccc(C)cc1` as the molecule, how does the AC50 [1] read?
Answer: 20 µM [falling, partial curve]

Question: For `CCOC(=O)C(=CNc1nc(-c2ccc3ccccc3c2)cs1)C(=O)OCC`, which AC50 [1] is on record?
Answer: 3.55 µM [rising, single point]

Question: For `COc1cc2c(cc1OC)CN(c1ccc(C(N)=O)cc1[N+](=O)[O-])CC2`, which AC50 [1] is on record?
Answer: 12.6 µM [rising, partial curve, poor fit]

Question: And the AC50 [2]?
Answer: 14.1 µM [falling, partial curve, poor fit]

Question: Which AC50 [1] does the source give for `Cc1ccc2nc(Nc3ccc(C)c(Cl)c3)c3nncn3c2c1` here?
Answer: 0.891 µM [rising, full curve, poor fit]

Question: Which AC50 [1] does the source give for `CCN(CC)C(=O)Cn1cc(C(=O)C(=O)NCC2COc3ccccc3O2)c2ccccc21` (stereo not given) here?
Answer: 2.51 µM [falling, full curve]

Question: For `Cc1cccc(C(=O)Nc2cc(NC(=O)c3cccs3)ccc2C)c1`, which AC50 [2] is on record?
Answer: 11.2 µM [falling, partial curve, poor fit]

Question: Which AC50 [1] does the source give for `CCN(CCCNC(=O)CCNC(=O)Cn1ccc2ccccc2c1=O)c1ccccc1` here?
Answer: 0.92 µM [rising, full curve, poor fit]

Question: Which AC50 [1] does the source give for `C1=C(c2ccco2)N2CCN=C2S1` here?
Answer: 0.794 µM [rising, partial curve, poor fit]

Question: Which AC50 [1] does the source give for `CCC(CC)C1C(C#N)=C(N)Oc2n[nH]c(C)c21` (stereo not given) here?
Answer: 5.8 µM [falling, partial curve]

Question: With `CCCCCCSc1ccc(-c2nc3ccc(Cl)cn3c2NC2CCCCC2)cc1` as the molecule, how does the AC50 [1] read?
Answer: 18.4 µM [falling, single point]

Question: With `COc1ccc2cc(-c3ccsc3)ncc2c1` as the molecule, how does the AC50 [1] read?
Answer: 20.6 µM [falling, single point]

Question: Which AC50 [1] does the source give for `Cc1[nH]c2ccc(C(=O)O)cc2c1C` here?
Answer: 29.1 µM [falling, single point]

Question: With `O=C(N/N=C/c1cn[nH]c1-c1ccc(Cl)cc1)c1ccc([N+](=O)[O-])cc1` as the molecule, how does the AC50 [1] read?
Answer: 35.5 µM [falling, single point]

Question: For `c1ccc(CN2CCC(N=C3NN=C(c4ccc5c(c4)OCCO5)CS3)CC2)cc1`, which AC50 [1] is on record?
Answer: 17.8 µM [falling, single point]

Question: Which AC50 [1] does the source give for `S=C(NCC1CCCO1)c1ccc(Br)cc1` (stereo not given) here?
Answer: 28.2 µM [rising, single point]

Question: For `COc1ccc(NC(=O)N2CCn3c2nc2ccccc23)cc1`, which AC50 [1] is on record?
Answer: 3.16 µM [falling, partial curve]

Question: With `CCOC(=O)C1(Cc2ccccc2)CCN(CC2CC=CCC2)CC1` (stereo not given) as the molecule, how does the AC50 [1] read?
Answer: 35.5 µM [falling, single point]

Question: Which AC50 [1] does the source give for `O=S1(=O)CCC(NC(=S)Nc2ccc3ccccc3c2)C1` (stereo not given) here?
Answer: 0.562 µM [rising, full curve, poor fit]

Question: For `O=C1/C(=C/c2cccc(Br)c2)SC(=S)N1CCC(=O)N(CCO)c1ccccc1`, which AC50 [1] is on record?
Answer: 25.1 µM [falling, single point]

Question: Which AC50 [1] does the source give for `COc1ccc2cc(-c3ccn[nH]3)ccc2c1` here?
Answer: 6.31 µM [falling, single point]

Question: For `O=C(CSc1nc2ccccc2c(=O)n1-c1ccccc1F)NC1CCS(=O)(=O)C1` (stereo not given), which AC50 [1] is on record?
Answer: 5.8 µM [rising, full curve, poor fit]

Question: For `Cc1cccc(-c2noc(CSc3ccccc3)n2)c1`, which AC50 [1] is on record?
Answer: 1.12 µM [rising, partial curve]

Question: Which AC50 [1] does the source give for `COc1ccc(/C=C2\SC(=S)N(CCC(=O)NCCc3ccc(O)cc3)C2=O)cc1` here?
Answer: 3.55 µM [falling, full curve]

Question: With `Cc1ccc2cc3c(N)c4c(C)ccc(C)c4nc3nc2c1` as the molecule, how does the AC50 [1] read?
Answer: 4.47 µM [falling, partial curve]

Question: Which AC50 [1] does the source give for `CC(C)(C)c1ccc(NC(=O)CC2(C(F)(F)F)OCCO2)cc1` here?
Answer: 0.794 µM [rising, partial curve, poor fit]

Question: With `C[C@@H]1CN([C@H](C)CO)C(=O)c2cc(NC(=O)c3ccncc3)ccc2O[C@@H]1CN(C)C(=O)Nc1ccccc1` as the molecule, how does the AC50 [1] read?
Answer: 0.58 µM [rising, full curve]

Question: Which AC50 [1] does the source give for `Cc1cc(NC(=O)CSc2nnc(-c3ccccc3)o2)no1` here?
Answer: 35.5 µM [falling, single point]

Question: And the AC50 [2]?
Answer: 35.5 µM [falling, single point]

From PubChem BioAssay AID493014 (National Center for Advancing Translational Sciences (NCATS), 2011)
